We go through 42 sequences from article PMC7819943, “Rice protein-binding microarrays: a tool to detect cis-acting elements near promoter regions in rice”.

Amino acid sequences for entries named in this document (tags omitted).
UniProt Q0JBA9, entry or part of it: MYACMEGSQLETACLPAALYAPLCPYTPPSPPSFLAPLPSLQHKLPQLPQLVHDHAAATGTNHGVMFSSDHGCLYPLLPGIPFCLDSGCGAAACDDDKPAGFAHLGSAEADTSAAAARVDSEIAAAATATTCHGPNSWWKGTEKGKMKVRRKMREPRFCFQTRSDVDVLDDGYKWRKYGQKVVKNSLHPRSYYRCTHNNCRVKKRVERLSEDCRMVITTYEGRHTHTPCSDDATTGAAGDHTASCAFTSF

The other results are listed elsewhere or left out.

The test has as its target OsWRKY34 (Oryza sativa, UniProt Q0JBA9 1-250). Description: protein-binding microarray (RPBM); PBS, 2% BSA, 51.3 ng/ul salmon testes DNA, 50 uM zinc acetate, 200 nM TF, 25 C, 1 h; high values mean tight binding. The conditions noted are these: protein: recombinant; tags: N-terminal polyhistidine and DsRed monomer fusion (pET32a); label: CyDye5-dUTP incorporated in the synthesized complementary strand; 3' TTTTT single-stranded linker to array surface; dsDNA, one strand shown. An outline of the steps:
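Binding signal is defined as the fluorescence intensity of each feature in arbitrary units, read on an Axon 4000B scanner. Transcription factors with N-terminal polyhistidine and DsRed fusions came from E. coli BL21-CodonPlus and were purified on Ni–NTA. They were incubated at 200 nM for 1 h at 25 °C on a custom Agilent array that had been made double-stranded with Cy5-dUTP, with 50 µM zinc acetate present, and the array was washed.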
Take “GCTAGCCGATTGGTTTATACTGGACTATATTATTGTTATACGGAGTCACCTAGTGCAG”: the binding signal was 9380 fluorescence intensity (a.u.). For “GAATTACCATTTGTGCATATAATTCTGGCGGGGTAGTTTTCGGAGTCACCTAGTGCAG”, the binding signal is 11000 fluorescence intensity (a.u.). Then “GCACACATACACATACTGACAATGATGAGTTGATGACACACGGAGTCACCTAGTGCAG”, with 8500 fluorescence intensity (a.u.); and “TGTGCCTATGGAATACTGTTAAGTGGTTTTTCTATTTAATCGGAGTCACCTAGTGCAG”, with 8540 fluorescence intensity (a.u.). Turning to “TTAGATTTCTTCACCTTCTTGGAGCTCGCGAGCTCGTCGGCGGAGTCACCTAGTGCAG”, the binding signal was 9670 fluorescence intensity (a.u.). Regarding “TTCTTTTTTTTTTCTTCCATTCCCCTGGCAAATGTCTCCACGGAGTCACCTAGTGCAG”, the binding signal is 8340 fluorescence intensity (a.u.). In the case of “AGAGGAGGAAGGTGGGAGCAGCTAGATTGGAAGTGGGCAACGGAGTCACCTAGTGCAG”, the binding signal is 8360 fluorescence intensity (a.u.). As to “CCATGCCCTACCTGCCGCGCGCCTAGGGTTTCGCGAGGATCGGAGTCACCTAGTGCAG”, the binding signal was 8030 fluorescence intensity (a.u.). Regarding “CATAGCCCGTCACCACCACAGATATGCAGTGCACACACATCGGAGTCACCTAGTGCAG”, the binding signal was 8050 fluorescence intensity (a.u.). Then “ACCTGGTCCCACTTGTCATACACACAGTACGTCTTGGAATCGGAGTCACCTAGTGCAG”, with 9100 fluorescence intensity (a.u.); and “GCCTCTTTTTTGTCGCTCTCACTGTCTCACACCTACACGTCGGAGTCACCTAGTGCAG”, with 16400 fluorescence intensity (a.u.); and “TTAATTTCTGGTCCTATTTGTCATATACACATCGCGCCTTCGGAGTCACCTAGTGCAG”, with 8770 fluorescence intensity (a.u.). As for “CCATAGTTAGCTTCATTATTTTACTGCTAGCTTCATTTATCGGAGTCACCTAGTGCAG”, the figure is 11700 fluorescence intensity (a.u.); as for “TCGTCGTAGCCACCACACCGCCCACACACCCACACCGCCGCGGAGTCACCTAGTGCAG”, 9580 fluorescence intensity (a.u.). Then “TTGCACCCTTTTGTTTGCGCTTGAATTGACTTCTTTTTTGCGGAGTCACCTAGTGCAG”, with 8200 fluorescence intensity (a.u.); and “GTATTCCTACTTGAACTCTTCTTTTACTTTATTTTTCTAACGGAGTCACCTAGTGCAG”, with 10600 fluorescence intensity (a.u.). As to “TATCATGTGTTCGTATGTCGTCATCTGGCATGTCTTAGGTCGGAGTCACCTAGTGCAG”, the binding signal was 10500 fluorescence intensity (a.u.).

For the sequence “CGCCGGCCCTTTTACTTCCCTTTGTTTTAAGGCCCACAACCGGAGTCACCTAGTGCAG”, the binding signal is 9130 fluorescence intensity (a.u.). In the case of “AGCAGCACACTATCCATTCCAACTTCGAAGCGCTCACTCTCGGAGTCACCTAGTGCAG”, the binding signal is 8210 fluorescence intensity (a.u.). For “GGTTGTCTGATTAATTCCTCTTCTCCGACCGGCTCGCTCACGGAGTCACCTAGTGCAG”, the binding signal was 8490 fluorescence intensity (a.u.).

For “CCAACCATGTCGCTATCTTCCATTCGTCTCCACGTCCAGACGGAGTCACCTAGTGCAG”, the binding signal was 8280 fluorescence intensity (a.u.).

For the sequence “TGCAAAAAGACGGTCACACATCCTTTTCTTCCCCGTGAACCGGAGTCACCTAGTGCAG”, the binding signal was 8850 fluorescence intensity (a.u.).

Regarding “CCACTCGCTCTCCGTTCACCACTCCAAACGCGTAGCGCTACGGAGTCACCTAGTGCAG”, the binding signal was 10700 fluorescence intensity (a.u.). “GCACAAGTTGCAAATTACTACTACTAGTTCGCCAGTCACACGGAGTCACCTAGTGCAG”: the binding signal is 8110 fluorescence intensity (a.u.). As for “CACCACGATTTGTTCCTTCCATGCCGCGGTTTCTTCTCTTCGGAGTCACCTAGTGCAG”, the figure is 9150 fluorescence intensity (a.u.); as for “TTCTCGGACATGCCAACACCATAGGCCCACCGGCCCGCATCGGAGTCACCTAGTGCAG”, 8650 fluorescence intensity (a.u.). Then “AGCTCATCTAGTAGCCGCTTCTTGCATTCTTCTTCTTCTCCGGAGTCACCTAGTGCAG”, with 11700 fluorescence intensity (a.u.); and “TTGGCCGCTTCACCTGAATCTAATCTTTTGTTAATTAACCCGGAGTCACCTAGTGCAG”, with 8070 fluorescence intensity (a.u.); and “TCTGGGTGAATACTGCTAGTTTTCTATGGGGAGGTGGGGACGGAGTCACCTAGTGCAG”, with 12600 fluorescence intensity (a.u.). With “TGAGACTGGGACTGTGGTTGAGGGGTTATTTGGCTAGTTCCGGAGTCACCTAGTGCAG”, the binding signal is 10400 fluorescence intensity (a.u.). Regarding “TGTGCTACCTGTAGCTGCAGGAATGACCTTTGACTTTCTTCGGAGTCACCTAGTGCAG”, the binding signal is 10400 fluorescence intensity (a.u.).

As to “GGTCTTTAGGTTAAGGGTGGTTGTGCCTTATATTTTGGAACGGAGTCACCTAGTGCAG”, the binding signal is 8580 fluorescence intensity (a.u.). Regarding “TCCGCATCCCCATCGTTCGCACACCCTGTTTTTTTTTAGCCGGAGTCACCTAGTGCAG”, the binding signal is 11200 fluorescence intensity (a.u.). As for “GAGTCGGACCATCGTTGTCTCGTTCTCCTCTTCTTCCGTCCGGAGTCACCTAGTGCAG”, the binding signal was 8380 fluorescence intensity (a.u.). In the case of “ATTTTGAGTTTTTACTTGTAACGTTTGACCACTTGTCTTACGGAGTCACCTAGTGCAG”, the binding signal was 8620 fluorescence intensity (a.u.). As for “GCTAGACACAGGCAACCAAACACACCCTAACACTCACTGTCGGAGTCACCTAGTGCAG”, the binding signal was 9290 fluorescence intensity (a.u.). Then “CACACGTCGGTGACAATCTCGTTTCTTCTTCTTCTCCGCCCGGAGTCACCTAGTGCAG”, with 8420 fluorescence intensity (a.u.); and “CATCGCTGGTTTAATGGATCTTTTCTCACAATCCGTTAGTCGGAGTCACCTAGTGCAG”, with 8310 fluorescence intensity (a.u.). As to “CCTCCGCGGCCGTCACCGATCTCATCCGCCGCCGACGATGCGGAGTCACCTAGTGCAG”, the binding signal is 8090 fluorescence intensity (a.u.).

As to “TGGCATAATTACATGCAAGCGTGAATCTTTTGTTCTATCTCGGAGTCACCTAGTGCAG”, the binding signal was 8230 fluorescence intensity (a.u.). As for “TTGAATCGATTCCCTTGCCTCGCCTCGCTGTTGTCGCCGACGGAGTCACCTAGTGCAG”, the figure is 8280 fluorescence intensity (a.u.). Consider “CTCCTGCCGCCATCCGTCGCGTCTCCGACCATCGTCACCACGGAGTCACCTAGTGCAG”, for which the binding signal was 14700 fluorescence intensity (a.u.).
